The values are deposited in ChEMBL (CHEMBL3988442, “University of Dundee, Small-Polar-MMV Screening Library” (2021)).

Sequences of proteins named here, by UniProt entry; tags and fusion partners are left off. Residues count along the entry.
UniProt A4I591, 1-473: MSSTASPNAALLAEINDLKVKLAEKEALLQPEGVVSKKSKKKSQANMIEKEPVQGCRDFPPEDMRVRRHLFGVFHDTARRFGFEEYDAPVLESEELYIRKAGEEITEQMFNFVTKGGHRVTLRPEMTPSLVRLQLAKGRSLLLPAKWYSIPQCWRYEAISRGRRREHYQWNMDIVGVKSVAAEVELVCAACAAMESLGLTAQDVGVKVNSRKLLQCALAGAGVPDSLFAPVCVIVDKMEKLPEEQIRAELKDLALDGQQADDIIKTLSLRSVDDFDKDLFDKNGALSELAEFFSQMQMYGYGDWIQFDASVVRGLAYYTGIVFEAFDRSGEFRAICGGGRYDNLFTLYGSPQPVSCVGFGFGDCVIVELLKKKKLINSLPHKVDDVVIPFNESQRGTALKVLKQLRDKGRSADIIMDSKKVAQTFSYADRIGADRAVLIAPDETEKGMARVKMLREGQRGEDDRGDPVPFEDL
UniProt I6X8D2, whole entry: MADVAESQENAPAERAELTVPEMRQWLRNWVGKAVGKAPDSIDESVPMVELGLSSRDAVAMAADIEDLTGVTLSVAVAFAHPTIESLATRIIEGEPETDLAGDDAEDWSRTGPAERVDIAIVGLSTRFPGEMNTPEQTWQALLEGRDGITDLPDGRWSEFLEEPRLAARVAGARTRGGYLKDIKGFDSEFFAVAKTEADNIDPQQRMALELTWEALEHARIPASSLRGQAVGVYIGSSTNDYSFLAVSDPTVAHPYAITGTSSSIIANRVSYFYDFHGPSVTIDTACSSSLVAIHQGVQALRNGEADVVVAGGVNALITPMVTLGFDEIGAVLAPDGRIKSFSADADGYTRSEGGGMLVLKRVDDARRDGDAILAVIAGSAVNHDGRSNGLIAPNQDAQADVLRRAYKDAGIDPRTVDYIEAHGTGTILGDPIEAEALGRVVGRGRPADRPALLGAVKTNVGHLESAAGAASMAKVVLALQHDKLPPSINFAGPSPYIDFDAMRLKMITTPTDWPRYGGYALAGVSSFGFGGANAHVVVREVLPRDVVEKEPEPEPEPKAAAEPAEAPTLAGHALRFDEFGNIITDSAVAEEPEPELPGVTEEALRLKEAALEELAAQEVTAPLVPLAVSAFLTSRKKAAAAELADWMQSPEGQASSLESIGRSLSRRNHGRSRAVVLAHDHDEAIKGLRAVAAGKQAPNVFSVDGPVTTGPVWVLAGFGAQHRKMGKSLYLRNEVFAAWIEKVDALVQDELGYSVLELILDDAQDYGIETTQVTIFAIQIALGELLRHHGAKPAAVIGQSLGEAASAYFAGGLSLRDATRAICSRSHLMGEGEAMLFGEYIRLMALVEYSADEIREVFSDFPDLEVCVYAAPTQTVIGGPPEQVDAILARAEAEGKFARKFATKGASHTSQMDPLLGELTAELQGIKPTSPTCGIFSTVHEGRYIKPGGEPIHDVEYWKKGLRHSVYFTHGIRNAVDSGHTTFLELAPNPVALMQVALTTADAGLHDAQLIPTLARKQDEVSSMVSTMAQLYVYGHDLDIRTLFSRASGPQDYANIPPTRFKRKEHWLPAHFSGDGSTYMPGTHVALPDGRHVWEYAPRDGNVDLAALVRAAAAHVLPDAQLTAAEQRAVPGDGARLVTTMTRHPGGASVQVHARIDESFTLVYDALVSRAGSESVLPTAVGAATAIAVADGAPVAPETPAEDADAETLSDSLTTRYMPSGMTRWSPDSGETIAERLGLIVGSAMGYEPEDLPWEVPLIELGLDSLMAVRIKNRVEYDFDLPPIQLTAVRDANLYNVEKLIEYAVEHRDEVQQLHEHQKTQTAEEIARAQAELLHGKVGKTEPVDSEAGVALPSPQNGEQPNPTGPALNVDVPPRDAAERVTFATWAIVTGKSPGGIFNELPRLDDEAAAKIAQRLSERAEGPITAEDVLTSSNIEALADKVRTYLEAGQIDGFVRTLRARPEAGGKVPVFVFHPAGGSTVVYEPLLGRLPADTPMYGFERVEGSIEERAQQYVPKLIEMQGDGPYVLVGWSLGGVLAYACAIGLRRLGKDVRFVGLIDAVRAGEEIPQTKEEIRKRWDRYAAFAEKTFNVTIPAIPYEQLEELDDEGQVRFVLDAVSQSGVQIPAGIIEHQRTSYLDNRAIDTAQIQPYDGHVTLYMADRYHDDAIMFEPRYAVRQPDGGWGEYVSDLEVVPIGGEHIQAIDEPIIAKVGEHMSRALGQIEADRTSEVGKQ
UniProt P9WFT3, whole entry: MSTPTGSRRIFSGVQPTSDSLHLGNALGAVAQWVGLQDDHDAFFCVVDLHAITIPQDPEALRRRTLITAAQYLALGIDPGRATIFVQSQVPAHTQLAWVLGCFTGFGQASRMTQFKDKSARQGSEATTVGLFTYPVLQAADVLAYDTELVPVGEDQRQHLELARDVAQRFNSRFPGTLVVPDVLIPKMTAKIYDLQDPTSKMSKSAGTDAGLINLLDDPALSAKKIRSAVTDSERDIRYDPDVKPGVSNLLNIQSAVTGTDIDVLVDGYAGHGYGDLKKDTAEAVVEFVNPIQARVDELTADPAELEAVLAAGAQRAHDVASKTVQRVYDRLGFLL
UniProt Q4DA54, 1-478: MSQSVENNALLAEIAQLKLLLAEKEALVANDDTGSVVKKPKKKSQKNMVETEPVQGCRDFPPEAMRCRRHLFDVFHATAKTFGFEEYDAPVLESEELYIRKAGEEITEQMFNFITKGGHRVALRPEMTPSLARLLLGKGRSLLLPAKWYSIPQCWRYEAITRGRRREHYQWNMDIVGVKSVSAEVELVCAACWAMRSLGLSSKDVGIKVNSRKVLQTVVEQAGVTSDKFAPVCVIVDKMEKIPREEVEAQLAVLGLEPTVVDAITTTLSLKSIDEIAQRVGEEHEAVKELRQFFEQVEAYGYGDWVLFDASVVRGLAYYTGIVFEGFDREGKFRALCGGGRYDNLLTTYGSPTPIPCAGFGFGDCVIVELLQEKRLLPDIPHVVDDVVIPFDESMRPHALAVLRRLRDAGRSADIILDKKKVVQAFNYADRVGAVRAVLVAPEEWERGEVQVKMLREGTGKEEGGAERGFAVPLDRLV

A: 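Enzyme assay of histidyl-tRNA synthetase; the read-out is not stated. Target: Histidine-tRNA ligase, Leishmania infantum (UniProt A4I591). Compounds at 30 µM. Higher reads as stronger inhibition (inferred: compounds with an IC50 in retests scored well above the rest). The assay is labelled LdHisRS but filed under L. infantum. Size under these conditions: about 69,000 compounds, about 410 of them at 50% or above in at least one test.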
B: 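Polyketide synthase Pks13, Mycobacterium tuberculosis (UniProt I6X8D2). Enzyme assay of the thioesterase domain of polyketide synthase 13; the read-out is not stated. Concentration: 30 µM. The record gives no direction; the compounds picked for IC50 retests had high values, so higher reads as stronger inhibition. About 67,000 compounds were tested under these conditions; 0.46% (about 300) showed 50% or more at least once.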
C: 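Enzyme assay of tryptophanyl-tRNA synthetase; the read-out is not stated. Target: Tryptophan-tRNA ligase, Mycobacterium tuberculosis (UniProt P9WFT3). Compounds at 10 µM. Direction is not recorded; retested compounds ran higher, which suggests that high means inhibition. Size under these conditions: about 65,000 compounds, about 64 of them at 50% or above in at least one test.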
D: 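Enzyme assay of histidyl-tRNA synthetase; the read-out is not stated. Target: Histidine-tRNA ligase, Trypanosoma cruzi CL Brener (UniProt Q4DA54). Concentration: 30 µM. The record gives no direction; compounds that gave an IC50 in retests scored well above the rest, so higher reads as stronger inhibition. About 69,000 compounds were tested under these conditions; 0.045% (about 31) showed 50% or more at least once.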

Results are given as percent effect.
The controls that fix the scale are not given in the record; negative values are as filed.
This is an unselected part of the compounds tested.
A dash means the value is not listed here; it may have been measured.

structure	A	B	C	D
CCC(C)N(Cc1ccsc1)C(=O)c1ccc(CO)cc1 (stereo not given)	20.21	-8.782	3.484	6.061
Cn1cc(-c2cnc(N3CCCC3)nc2)cc1C(=O)O	19.23	12.94	-24.02	0.5348
O=C(NCC1CC1)C1CSCN1S(=O)(=O)c1ccccc1F (stereo not given)	25.3	6.214	4.351	2.439
Cc1ccc(CN2CCC(c3cnccn3)CC2)s1	8.696	0.821	0.4147	4.545
Cn1nc(C2CCNCC2)c2c(C(=O)NC3CC3)cc(C3CC3)nc21	20.69	-15.06	20.14	0.5917
CNC(=O)c1ccc(C(=O)N2CCC(Nc3cccnn3)CC2)cn1	7.965	-7.104	-4.765	3.207
CCn1nc(C)c(-c2cncn2Cc2ccccc2CN(C)C)c1C	12.77	-13.18	-6.368	10.08
CN(Cc1ccccn1)C(CO)c1cccc(Br)c1 (stereo not given)	3.614	-2.414	0.2719	2.439
COc1cnc(C2(O)CCN(C(=O)c3ccccn3)CC2)c(OC)n1	4.348	8.327	-	0
N#CCCN(CCC#N)C(=O)COC1CCCCC1	32.39	-42.48	2.725	8.28
CN(C)CC1(O)CCCN(C(=O)CCc2nc3cccnc3n2C)C1 (stereo not given)	11.48	-7.529	0.2441	-2.146
O=C(Nc1ccccc1)N1CC(C(=O)N2CCCC2)C2(CCOCC2)C1 (stereo not given)	2.752	3.85	5.424	2.521
CCc1ncc(C(=O)N(C)CCc2nc3cc(OC)ccc3[nH]2)cn1	-2.564	18.18	9.034	2.299
Cc1cnc(C(=O)N2CCCCC2c2ccc(CN(C)C)cc2)cn1 (stereo not given)	16.67	20.54	0.9721	-1.02
CCC(CC)C(=O)NS(=O)(=O)CCc1ccccc1	13.33	-31.07	-3.204	0.9804
Cc1cnn(CC(C)NCc2ccncc2)c1 (stereo not given)	11.3	-20.84	-3.067	0
COCCN(Cc1sccc1C)C(=O)COc1ccccc1O	1.333	-26.05	1.698	3.704
CCn1ccnc1CN1CCN(CC(=O)NC(C2CC2)C2CC2)CC1	7.339	-28.24	20.59	2.941
CC(NCC1CCN(CCO)CC1)c1ccc(C(F)(F)F)cc1 (stereo not given)	-2.74	-8.836	-0.5961	2.186
CCNC(=O)Nc1ncc(-c2cccnc2)s1	11.35	-18.52	-1.447	0
Cc1ccc(C(=O)NCCCS(C)(=O)=O)c(=O)[nH]1	30.3	44.69	9.889	-3.261
CCN(CC)C(=O)CN(C)C(=O)c1ccc(-c2ccsc2)nc1C	8.642	9.674	0.5092	-0.4464
CCc1nc(C)c([C@H]2CN(C)C[C@@H]2C(=O)NCc2ccccc2OC)[nH]1	18.18	-20.47	4.34	-1.058
O=C(Nc1c(N2CCCC2)cccc1N1CCCC1)c1ccccn1	84.62	-1.631	-4.741	22.99
COc1ccc(-c2cc(C3CCCNC3)ccn2)cc1 (stereo not given)	8.511	1.793	0.7026	15.41
COc1ncccc1C(=O)N1CCC(c2nc3c(C)cccc3[nH]2)CC1	13.6	-21.05	0.942	1.508
O=C(C1CCOCC1)N1CC[C@@](O)(c2ccccc2)[C@H]2CCCC[C@@H]21	-4.762	9.515	3.468	1.538
CC(C)=CCN1CCC(c2nccn2Cc2cscn2)CC1	24.76	-5.886	-1.253	2.479
Cc1ccc(CNC(=O)c2nc3c(n2C)CCN(c2ncccn2)C3)o1	25.74	-19.71	-	7.538
Cc1ccc(CN2CC[C@H]3OCC[C@@]3(C(=O)N3CCCO3)C2)o1	2.778	-22.76	-4.344	4.762
OC1(CN2CCC(Oc3cccnc3)CC2)CNCCOC1 (stereo not given)	11.46	-4.751	-6.502	3.867
CC(C)n1cc(CN2CCCN(C(=O)c3ccoc3)CC2)cn1	14.52	-11.87	-4.62	3.093
Cn1cnnc1C1CCN(c2nc3ccccc3o2)CC1	11.11	-17.94	-3.123	10.3
CC(C)COCCC(=O)NCc1cn2cc(Br)ccc2n1	16.96	-7.264	-0.7965	1.667
CN(Cc1ccc2c(c1)OCCO2)C(=O)NCCc1cnn(C)c1	-3.077	-11.92	2.624	-0.3831
NC(=O)Cc1csc(NC(=O)C2CSCCC(=O)N2)n1 (stereo not given)	15.65	-13.72	2.204	2.062
CC(C(=O)NCC1CCCCC1)S(=O)(=O)Cc1csc(-c2cccs2)n1 (stereo not given)	19.84	-14.59	1.867	9.412
CCc1ccc(C(=O)N2CCCn3nnc(Cn4cccn4)c3C2)cc1	21.05	-28.87	-2.885	-1.149